The text below walks through data of PubChem BioAssay AID256 (DTP/NCI, 2004).

The test has as its system CD2F1 mice, L1210 leukemia ip, survival T/C. The test is described as follows: NCI In Vivo Anticancer Drug Screen. Data for tumor model L1210 Leukemia (intraperitoneal) in CD2F1 (CDF1) mice. The settings on record: higher T/C = longer survival. In a few lines:
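Compound-dosed mice with transplantable tumor versus matched vehicle controls; endpoint ratio T/C reported.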

[1] abbreviates: T/C endpoint: mean survival time, dose: 400.0 mg/kg/injection, schedule: Q04DX003 (ip), vehicle: saline with Tween-80.

The list is a part of this screen's results and no random one: it gathers tests that were run many times, whatever their T/C, doses with no T/C, and many T/C values between a quarter and a half above the control. Further doses and runs are listed elsewhere. T/C: endpoint of the treated group in % of that of the vehicle group. Some entries give survivors of the animals treated and no T/C: the source holds a T/C of zero for them, seemingly a mark for toxic or unscored doses. Some survivor counts are full or nearly so, which does not show that the dose was tolerated: the source hardly ever lists a survival T/C far under the control, and the zero likely stands for such cases as well. Survivors were counted at the toxicity check, usually on the fifth day, unless a day is given; later deaths do not show. Schedules are NCI's codes, read here as Q, the interval in days (D) or hours (H), X, the number of doses. Some doses were run more than once; the values are given in rising order. For survival time, this PubChem deposit counts one and a half times the control or more as active, and values a quarter to a half above the control carry no call in these data; other NCI protocols may use other cut-offs.

For `CC(=O)Nc1ccccc1OC(=O)c1ccccc1`, the survivor count under setting [1] is reported as 3 of 6.
The same measure, in the same setting: the same measure for `CC1CNC(Cl)O1` (stereo not given): 0 of 3.
For `N=[N+]=CC(=O)OCC(N)C(=O)O` (stereo not given), the T/C runs as follows: (T/C endpoint: mean survival time, dose: 0.5 mg/kg/injection, schedule: Q03HX024 (ip), vehicle: saline) 136 and 139 % of control; (T/C endpoint: mean survival time, dose: 1.0 mg/kg/injection, schedule: Q03HX024 (ip), vehicle: saline) 129 and 141 % of control; (T/C endpoint: mean survival time, dose: 5.0 mg/kg/injection, schedule: Q01DX009 (ip), vehicle: saline) 144 % of control; (T/C endpoint: mean survival time, dose: 6.25 mg/kg/injection, schedule: Q01DX007 (ip), vehicle: saline) 134 % of control; (T/C endpoint: mean survival time, dose: 6.25 mg/kg/injection, schedule: Q01DX009 (ip), vehicle: saline) 142 % of control; (T/C endpoint: mean survival time, dose: 10.0 mg/kg/injection, schedule: Q01DX009 (ip), vehicle: saline) 134 % of control. Moreover, the T/C reads like this: (T/C endpoint: mean survival time, dose: 12.5 mg/kg/injection, schedule: Q01DX007 (ip), vehicle: saline) 142 and 143 % of control; (T/C endpoint: mean survival time, dose: 12.5 mg/kg/injection, schedule: Q01DX009 (ip), vehicle: saline) 140 % of control; (T/C endpoint: mean survival time, dose: 12.5 mg/kg/injection, schedule: Q03DX003 (ip), vehicle: saline) 129 % of control; (T/C endpoint: mean survival time, dose: 12.5 mg/kg/injection, schedule: Q04DX003 (ip), vehicle: saline) 125 % of control; (T/C endpoint: mean survival time, dose: 20.0 mg/kg/injection, schedule: Q01DX009 (ip), vehicle: saline) 146 % of control; (T/C endpoint: mean survival time, dose: 25.0 mg/kg/injection, schedule: Q01DX007 (ip), vehicle: saline) 145 % of control. Further, the T/C is 141 % of control (T/C endpoint: mean survival time, dose: 25.0 mg/kg/injection, schedule: Q03DX003 (ip), vehicle: saline); 141 % of control (T/C endpoint: mean survival time, dose: 25.0 mg/kg/injection, schedule: Q04DX003 (ip), vehicle: saline); 144 % of control (T/C endpoint: mean survival time, dose: 50.0 mg/kg/injection, schedule: Q04DX003 (ip), vehicle: saline). Besides, the survivor count by setting is: (T/C endpoint: mean survival time, dose: 16.0 mg/kg/injection, schedule: Q03HX016 (ip), vehicle: saline) 6 of 6; (T/C endpoint: mean survival time, dose: 16.0 mg/kg/injection, schedule: Q03HX024 (ip), vehicle: saline) 5 of 10 and 10 of 10; (T/C endpoint: mean survival time, dose: 25.0 mg/kg/injection, schedule: Q01DX009 (ip), vehicle: saline) 6 of 6; (T/C endpoint: mean survival time, dose: 40.0 mg/kg/injection, schedule: Q01DX009 (ip), vehicle: saline) 6 of 6; (T/C endpoint: mean survival time, dose: 50.0 mg/kg/injection, schedule: Q01DX009 (ip), vehicle: saline) 4 of 6.
Turning to `CC(=O)OCCC/C(=C\c1ccc(Cl)c(Cl)c1)[N+](=O)[O-]`, the survivor count is listed as 2 of 6 (T/C endpoint: mean survival time, dose: 200.0 mg/kg/injection, schedule: Q01DX001 (ip), vehicle: saline) and 0 of 6 (T/C endpoint: mean survival time, dose: 400.0 mg/kg/injection, schedule: Q01DX001 (ip), vehicle: saline).
Take `Cc1cc(N2C(=O)CCSC2=S)ccc1Cl`: the T/C is 125 % of control (T/C endpoint: mean survival time, dose: 50.0 mg/kg/injection, schedule: Q01DX009 (ip), vehicle: Klucel (hydroxypropylcellulose) (HPC)) and 129 % of control (T/C endpoint: mean survival time, dose: 200.0 mg/kg/injection, schedule: Q01DX009 (ip), vehicle: Klucel (hydroxypropylcellulose) (HPC)). For the same molecule, the survivor count (T/C endpoint: mean survival time, dose: 400.0 mg/kg/injection, schedule: Q01DX009 (ip), vehicle: Klucel (hydroxypropylcellulose) (HPC)) is 2 of 6 and 6 of 6.
For the molecule `CCOC(=O)/C(N=Nc1ccc(O)cc1)=C(\C)O`, the survivor count (T/C endpoint: mean survival time, dose: 400.0 mg/kg/injection, schedule: Q04DX003 (ip), vehicle: acetone) was 5 of 6.
Turning to `Cc1cn(C2CC(OP(=O)(O)OCC3OC(n4ccc(N)nc4=O)C(O)C3O)C(CO)O2)c(=O)[nH]c1=O` (stereo not given), the T/C was 128 % of control (T/C endpoint: median survival time, dose: 20.0 mg/kg/injection, schedule: Q01DX005 (ip), vehicle: saline); 140 % of control (T/C endpoint: median survival time, dose: 40.0 mg/kg/injection, schedule: Q01DX005 (ip), vehicle: saline); 135 % of control (T/C endpoint: median survival time, dose: 50.0 mg/kg/injection, schedule: Q01DX005 (ip), vehicle: saline); 141 % of control (T/C endpoint: median survival time, dose: 100.0 mg/kg/injection, schedule: Q01DX005 (ip), vehicle: saline); 149 % of control (T/C endpoint: median survival time, dose: 200.0 mg/kg/injection, schedule: Q01DX005 (ip), vehicle: saline).
On to `CNP1(N(C)C)=NP(NC)(N(C)C)=NP(NC)(N(C)C)=N1` (stereo not given), for which the survivor count (T/C endpoint: mean survival time, dose: 400.0 mg/kg/injection, schedule: Q04DX003 (ip), vehicle: saline) is 1 of 6.
On to `CO[C@H]1/C=C/O[C@@]2(C)Oc3c(C)c(O)c4c(O)c(c(/C=N/N5C(C)CN(Cc6ccccc6)CC5C)c(O)c4c3C2=O)NC(=O)/C(C)=C\C=C\[C@H](C)[C@H](O)[C@@H](C)[C@@H](O)[C@@H](C)[C@H](OC(C)=O)[C@@H]1C` (stereo not given in full), for which the survivor count by setting is: (T/C endpoint: mean survival time, dose: 100.0 mg/kg/injection, schedule: Q04DX003 (ip), vehicle: saline with Tween-80) 6 of 6; under setting [1], 5 of 6.
For the molecule `COC(=O)/C=N/NS(=O)(=O)c1cccc(N)c1`, for the setting “T/C endpoint: mean survival time, dose: 400.0 mg/kg/injection, schedule: Q04DX003 (ip), vehicle: water”, the survivor count is given as 1 of 6.
For the molecule `CCOC(=O)C1=C(C)O/C(=C/c2cccc(Cl)c2)C1=O`, the survivor count (T/C endpoint: median survival time, dose: 400.0 mg/kg/injection, schedule: Q01DX009 (ip), vehicle: saline with Tween-80) was 0 of 6.
Turning to `CC(=O)NC(C=O)CC(C=O)CO` (stereo not given), for the setting “T/C endpoint: mean survival time, dose: 300.0 mg/kg/injection, schedule: Q04DX003 (ip), vehicle: saline”, the survivor count was 3 of 6.
As for `O=C(CCNC(=O)OCc1ccccc1)NC(CSCc1ccccc1)C(=O)O` (stereo not given), where the note is “T/C endpoint: mean survival time, dose: 400.0 mg/kg/injection, schedule: Q01DX005 (ip), vehicle: water”, the survivor count is recorded as 1 of 6.
For `NC1CCCCC1N.O=S(=O)([O-])c1cccc(S(=O)(=O)[O-])c1.[Pt+4]`, the T/C was 125 % of control (T/C endpoint: median survival time, dose: 1.56 mg/kg/injection, schedule: Q04DX003 (ip), vehicle: saline with Tween-80) and 148 % of control (T/C endpoint: median survival time, dose: 6.25 mg/kg/injection, schedule: Q04DX003 (ip), vehicle: saline with Tween-80). For the same molecule, the survivor count is, setting by setting: (T/C endpoint: median survival time, dose: 100.0 mg/kg/injection, schedule: Q04DX003 (ip), vehicle: saline with Tween-80) 5 of 6 and 6 of 6; (T/C endpoint: median survival time, dose: 200.0 mg/kg/injection, schedule: Q04DX003 (ip), vehicle: saline with Tween-80) 4 of 6.
Take `O=[N+]([O-])c1cc(CCl)ccc1CCl`: where the note is “T/C endpoint: mean survival time, dose: 300.0 mg/kg/injection, schedule: Q01DX001 (ip), vehicle: other”, the survivor count is listed as 3 of 6.
